Experimental data: PubChem BioAssay AID504744 (Drosophila RNAi Screening Center, 2011)

- Screen: 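Identify dsRNAs that increase or decrease phospho-dAkt after insulin treatment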 (primary screen)
- System: Drosophila Kc167 cells
- Knock-down reagent: long dsRNA against Drosophila genes, 250 ng dsRNA per well of a 384-well plate
- Time to read-out: 3 days of knock-down, then overnight serum-free starvation before stimulation
- Treatment: bovine insulin at 387 nM for 10 minutes after 12 h without serum
- Measured: 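Per-well phospho-dAkt level from an in-cell fluorescent antibody stain, divided by a DNA-dye signal; log2 residuals turned into z-scores that take cell number into account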
- Call rule: 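Under insulin, a gene counts as a hit if the average z-score of two replicates lies above 2.5 or below -2.5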
In all, the deposit lists about 23,000 reagents; this is an unselected part of those that have a named target and a result. Of all reagents, 98 (0.43%) were called active. 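Only hit calls are given; the phospho-dAkt signals, z-scores and hit direction were not deposited.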 Reagents against one gene are numbered here. A plus sign joins genes that one reagent is predicted to hit.

gene knocked down,reagent no.,call
CG13409 (GeneID 42592),1,inactive
CG31871 (GeneID 34463),1,inactive
CG31871 (GeneID 34463),2,inactive
CG10936 (GeneID 37000),1,inactive
CG10936 (GeneID 37000),2,inactive
CG10936 (GeneID 37000),3,inactive
CG14074 (GeneID 40051),1,inactive
flz (GeneID 35902),1,inactive
AMPKalpha (GeneID 43904),1,active
Ance-4 (GeneID 35909),1,inactive
CG42747 (GeneID 38732),1,inactive
CG42747 (GeneID 38732),2,inactive
CG12689 (GeneID 31676),1,inactive
CG32694 (GeneID 31933),1,inactive
CG32694 (GeneID 31933),2,inactive
CG32694 (GeneID 31933),3,inactive
tomboy40 (GeneID 35553),1,inactive
CG4239 (GeneID 32606),1,inactive
toy (GeneID 43833),1,inactive
CG4210 (GeneID 41832),1,inactive
mod (GeneID 43764),1,inactive
Cad96Cb (GeneID 43033),1,inactive
Cad96Cb (GeneID 43033),2,inactive
CG14326 (GeneID 42120),1,inactive
Cyp4aa1 (GeneID 36752),1,inactive
Men-b (GeneID 43936),1,inactive
CG15764 (GeneID 31516),1,inactive
Tsen34 + Trl,1,inactive
CG6961 + CG18259,1,inactive
CG6961 + CG18259,2,inactive
Nrt (GeneID 39873),1,inactive
CG42686 (retired record) (GeneID 42674),1,inactive
CG42686 (retired record) (GeneID 42674),2,inactive
Jhbp2 (GeneID 40612),1,inactive
Mic26-27 (GeneID 41959),1,inactive
CG14985 (GeneID 38470),1,inactive
CG14985 (GeneID 38470),2,inactive
CG13473 (GeneID 39603),1,inactive
TbCMF46 (GeneID 34318),1,inactive
CG9312 (GeneID 41686),1,inactive
Targ1 (GeneID 40340),1,inactive
ETH (GeneID 44125),1,inactive
ppk20 (GeneID 43486),1,inactive
AstA-R2 (GeneID 43393),1,inactive
Rbcn-3B (GeneID 31155),1,inactive
cnn (GeneID 36491),1,inactive
cnn (GeneID 36491),2,inactive
plu (GeneID 44848),1,inactive
CG30492 (retired record) + M7BP,1,inactive
CG30492 (retired record) + M7BP,2,inactive
CG30492 (retired record) + M7BP,3,inactive
CG30492 (retired record) + M7BP,4,inactive
CG30492 (retired record) + M7BP,5,inactive
Gr98d (GeneID 43309),1,inactive
Syx6 (GeneID 40373),1,inactive
CG42560 + CG42559,1,inactive
Sk1 (GeneID 32089),1,inactive
cue (GeneID 38174),1,inactive
mtTFB2 (GeneID 41228),1,inactive
kkv (GeneID 45884),1,inactive
pnut (GeneID 35801),1,inactive
CG3216 (GeneID 37376),1,inactive
CG10333 (GeneID 35112),1,inactive
CG14110 (GeneID 39500),1,inactive
CG10543 (GeneID 37379),1,inactive
CG6847 (GeneID 32778),1,inactive
CG6847 (GeneID 32778),2,inactive
CG1789 (GeneID 31812),1,inactive
CG4213 (GeneID 33209),1,inactive
aly (GeneID 45960),1,inactive
aly (GeneID 45960),2,inactive
CG18744 (GeneID 59140),1,inactive
rempA (GeneID 33230),1,inactive
Acsx1R (GeneID 42352),1,inactive
ClC-a (GeneID 41428),1,inactive
ClC-a (GeneID 41428),2,inactive
ClC-a (GeneID 41428),3,inactive
CG13117 (GeneID 34289),1,inactive
ine (GeneID 33659),1,inactive
scra (GeneID 35696),1,inactive
CG17230 (GeneID 41376),1,inactive
zfh1 (GeneID 43650),1,inactive
zfh1 (GeneID 43650),2,inactive
SNF4Agamma (GeneID 42515),1,inactive
SNF4Agamma (GeneID 42515),2,inactive
SNF4Agamma (GeneID 42515),3,inactive
SNF4Agamma (GeneID 42515),4,active
CG5039 (GeneID 43100),1,inactive
CG17005 (GeneID 34249),1,inactive
E(bx) (GeneID 44811),1,inactive
E(bx) (GeneID 44811),2,inactive
E(bx) (GeneID 44811),3,inactive
CG34115 (GeneID 4379880),1,inactive
CG1575 (GeneID 31731),1,inactive
Tpc2 (GeneID 37983),1,inactive
Npl4 (GeneID 43091),1,inactive
Npl4 (GeneID 43091),2,inactive
Stoml2 (GeneID 37807),1,inactive
CG15368 (GeneID 31861),1,inactive
Mgat3 (GeneID 318981),1,inactive
CG9582 (GeneID 34230),1,inactive
CG6709 + Hez,1,inactive
CG6709 + Hez,2,inactive
Arp53D (GeneID 36879),1,inactive
CG18234 (GeneID 40024),1,inactive
bocks (GeneID 41162),1,inactive
CG31386 (retired record) (GeneID 318706),1,inactive
CG5096 (GeneID 34410),1,inactive
Mppe (GeneID 36285),1,inactive
Obp93a (GeneID 42506),1,inactive
Glyp (GeneID 33386),1,inactive
ACXA (GeneID 53432),1,inactive
Mco3 (GeneID 43134),1,inactive
CG18754 (GeneID 59145),1,inactive
kin17 (GeneID 40242),1,inactive
CG40486 (GeneID 3355162),1,inactive
JMJD5 (GeneID 38097),1,inactive
Sumo (GeneID 33981),1,inactive
CG14313 (GeneID 42176),1,inactive
Prosbeta2 (GeneID 39628),1,inactive
CG31559 (GeneID 40749),1,inactive
CG31559 (GeneID 40749),2,inactive
CG31957 (GeneID 319046),1,inactive
Tsp42Ej (GeneID 35620),1,inactive
Shab (GeneID 38352),1,inactive
Shab (GeneID 38352),2,inactive
Shab (GeneID 38352),3,inactive
CG14811 (GeneID 31132),1,inactive
Hacd1 (GeneID 34614),1,inactive
CG6996 (GeneID 40212),1,inactive
CG11396 (GeneID 40296),1,inactive
Upf1 (GeneID 32153),1,inactive
smal (GeneID 5740323),1,inactive
smal (GeneID 5740323),2,inactive
smal (GeneID 5740323),3,inactive
smal (GeneID 5740323),4,inactive
smal (GeneID 5740323),5,inactive
CG18179 (GeneID 39124),1,inactive
CG14301 (GeneID 42235),1,inactive
CG30378 (GeneID 246577),1,inactive
CG6481 (GeneID 32843),1,inactive
CG6195 (GeneID 42343),1,inactive
CG12289 (GeneID 39279),1,inactive
Dolk (GeneID 36856),1,inactive
La (GeneID 35305),1,inactive
CG12341 (GeneID 36137),1,inactive
CG1494 (GeneID 33102),1,inactive
phol (GeneID 39095),1,inactive
Acp98AB (retired record) (GeneID 44933),1,inactive
CG31562 (retired record) (GeneID 40753),1,inactive
CG31562 (retired record) (GeneID 40753),2,inactive
CG14642 (GeneID 40532),1,inactive
CG15207 (retired record) (GeneID 32023),1,inactive
CG15207 (retired record) (GeneID 32023),2,inactive
Acbp1 (GeneID 34111),1,inactive
yin (GeneID 31340),1,inactive
yin (GeneID 31340),2,inactive

Called active (from the list above):
gene knocked down,reagent no.,call
AMPKalpha (GeneID 43904),1,active
SNF4Agamma (GeneID 42515),4,active
